Experimental data: article PMC9317006, “A Fiber-Based SPR Aptasensor for the In Vitro Detection of Inflammation Biomarkers”
Construct, isoform or probe ends are uncertain for at least one entry. For some assays here: Tags and fusion partners may be left off the protein sequences shown.

Key:
[1] = molecular target: T1, C-reactive protein (CRP) (human) (UniProt P02741); experiment: fiber-based SPR; details: 100 nM protein; 3' thiol; Detection buffer: 25 mM Tris base, 192 mM glycine, 0.05% Tween 20, 0.1% BSA, 2 mM CaCl2, 100 mM NaCl, pH 8.0; binding temperature not stated (RI calibration at 20 C); recombinant protein; single-stranded DNA
T1 sequence (looked up, limits assumed): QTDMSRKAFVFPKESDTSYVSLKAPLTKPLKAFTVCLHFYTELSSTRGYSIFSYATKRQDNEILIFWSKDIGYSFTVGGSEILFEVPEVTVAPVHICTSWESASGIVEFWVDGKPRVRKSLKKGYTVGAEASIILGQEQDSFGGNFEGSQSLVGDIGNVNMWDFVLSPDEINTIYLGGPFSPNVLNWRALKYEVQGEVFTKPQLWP

[2] = molecular target: cardiac troponin I (cTn-I) (human) (UniProt P19429); experiment: fiber-based SPR; details: 100 nM protein; 3' thiol; Detection buffer: 25 mM Tris base, 192 mM glycine, 0.05% Tween 20, 0.1% BSA, 2 mM CaCl2, 100 mM NaCl, pH 8.0; binding temperature not stated (RI calibration at 20 C); recombinant protein; single-stranded DNA

Sequence | binding signal (% of specific response) [1] | binding signal (% of specific response) [2]
CGAAGGGGATTCGAGGGGTGATTGCGTGCTCCATTTGGTGTTTTT [cTn-I aptamer] | < 20 | 
GGCAGGAAGACAAACACGATGGGGGGGTATGATTTGATGTGGTTGTGCATGATCGTGGTCTGTGGTGCTGTTTTT [CRP aptamer] |  | < 20
